{
  "sequences": {"note": "Sequences of proteins named here, by UniProt entry; tags and fusion partners are left off. A change or cut given only in a name is not applied to a line headed by its entry.", "UniProt Q9UNA4": "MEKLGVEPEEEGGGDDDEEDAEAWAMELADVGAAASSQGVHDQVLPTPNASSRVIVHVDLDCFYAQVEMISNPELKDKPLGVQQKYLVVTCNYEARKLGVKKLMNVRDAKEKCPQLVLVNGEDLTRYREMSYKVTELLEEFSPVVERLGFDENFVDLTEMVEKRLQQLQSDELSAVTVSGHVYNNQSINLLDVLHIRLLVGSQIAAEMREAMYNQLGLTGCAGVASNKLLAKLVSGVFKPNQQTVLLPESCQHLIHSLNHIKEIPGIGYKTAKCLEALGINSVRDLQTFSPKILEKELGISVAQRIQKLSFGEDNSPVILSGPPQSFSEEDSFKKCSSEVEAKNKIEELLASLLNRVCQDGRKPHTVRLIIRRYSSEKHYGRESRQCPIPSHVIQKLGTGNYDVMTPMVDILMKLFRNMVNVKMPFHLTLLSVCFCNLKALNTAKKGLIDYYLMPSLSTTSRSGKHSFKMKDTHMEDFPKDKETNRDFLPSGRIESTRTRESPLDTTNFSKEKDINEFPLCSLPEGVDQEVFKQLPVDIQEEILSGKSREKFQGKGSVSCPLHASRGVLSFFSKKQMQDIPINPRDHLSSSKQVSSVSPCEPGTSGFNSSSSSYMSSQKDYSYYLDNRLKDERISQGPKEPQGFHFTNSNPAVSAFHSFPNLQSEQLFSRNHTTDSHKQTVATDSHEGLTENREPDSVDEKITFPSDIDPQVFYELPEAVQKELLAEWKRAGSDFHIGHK"},
  "source": "PubChem BioAssay AID588590",
  "about": "(National Center for Advancing Translational Sciences (NCATS), 2011)",
  "note": "“And” between values parts separate entries of the source, which are not always exact repeats. Equal entries are not always repeated. Among all 390,000 compounds or so, about 4,000 (1%) were called active. The shares of active, inactive and inconclusive entries below differ from those in the screen. The call rests on the fitted dose curve; in most records, active means well fitted inhibition curve with a large enough effect; inconclusive means small, poorly fitted or top-dose-only effect, or another doubt; inactive means no such curve, though single readings can be large or run the other way. A potency beside an inconclusive call is a rough fit, not a confirmed value. Some compounds were tested as several samples or in several runs, with calls that do not always agree. Potency means the concentration at half of the fitted maximal effect.",
  "data": [
    {"biological_target": "DNA polymerase iota (Homo sapiens) (UniProt Q9UNA4)", "experiment": "qHTS for Inhibitors of Polymerase Iota", "details": "Pol iota fluorescent replication assay, 10 min; series mostly up to 115 µM", "how_it_was_run": "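Fluorescent replication assay read twice, at 0 min and 10 min after adding 50 nM (final) substrate. Enzyme (10 nM) and compounds were first incubated 15 min at room temperature; enzyme-free buffer wells were negative controls.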", "values": [
      {"molecule": "COc1ccc(-c2cc(C(=O)OCC(=O)c3cccc(OC)c3)c3cccc(Cl)c3n2)cc1", "Potency": "inconclusive: 89.1 µM [inhibitor, single point]"},
      {"molecule": "CCOC(=O)c1c(NC(=O)c2cc(=O)c3c(C)cc(C)cc3o2)sc2c1CCC2", "Potency": "inactive"},
      {"molecule": "Cc1ccc(C)c(NC(=O)Cn2nnc(C(=O)NCc3ccco3)c2N)c1", "Potency": "inactive and active: 79.4 µM"},
      {"molecule": "CCCCNC(=O)CNC(=O)c1nn(-c2ccc(OC)cc2OC)c(=O)c2ccccc12", "Potency": "inconclusive: 31.6 µM [inhibitor, partial curve]"},
      {"molecule": "CCC(C)C(=O)Nc1nc(C)c(-c2csc(Nc3cc(OC)ccc3OC)n2)s1", "note": "(stereo not drawn)", "Potency": "inconclusive: 31.6 µM [inhibitor, single point]"},
      {"molecule": "CCOC(=O)c1cccc(NC(=O)CC2Oc3ccccc3NC2=O)c1", "note": "(stereo not drawn)", "Potency": "inconclusive: 70.8 µM [inhibitor, single point]"},
      {"molecule": "CCN(CC)S(=O)(=O)c1ccc2oc(C(=O)NC3CCCc4ccccc43)c(C)c2c1", "note": "(stereo not drawn)", "Potency": "inconclusive: 44.7 µM [inhibitor, partial curve, poor fit]"},
      {"molecule": "COc1ccccc1CNC(=O)CCCn1c(=O)c2cccn2c2ccccc21", "Potency": "inactive"},
      {"molecule": "CCN(CC)C1CCS(=O)(=O)C1", "note": "(stereo not drawn)", "Potency": "inconclusive: 56.2 µM [inhibitor, partial curve, poor fit]"},
      {"molecule": "O=C(NC(C(=O)O)c1ccccc1)c1ccc(S(=O)(=O)N2CCOCC2)cc1", "note": "(stereo not drawn)", "Potency": "inactive"},
      {"molecule": "O=C(COc1cccc2cccnc12)NCC(F)(F)F", "Potency": "inconclusive: 2.82 µM [inhibitor, partial curve, poor fit]"},
      {"molecule": "N#Cc1ccccc1S(=O)(=O)N1CCC(Oc2ccc(-n3cnnn3)cc2)CC1", "Potency": "inconclusive: 89.1 µM [inhibitor, single point]"},
      {"molecule": "Cc1ccc(C)c(S(=O)(=O)/N=C2\\C=C(NS(=O)(=O)c3ccccc3)C(=O)c3ccccc32)c1", "Potency": "inconclusive: 25.1 µM [inhibitor, partial curve, poor fit]"},
      {"molecule": "CC(=O)c1ccc(NC(=O)c2ccc(CN3C(=O)CCn4nc(C)cc43)cc2)cc1", "Potency": "inactive"},
      {"molecule": "Cc1ccsc1C1C(C#N)=C(N)OC2=C1C(=O)CC(C)C2", "note": "(stereo not drawn)", "Potency": "inconclusive: 20 µM [inhibitor, partial curve, poor fit]"},
      {"molecule": "CN1C(=O)C(C)(C)c2cc(S(=O)(=O)NCc3ccc(C(=O)NCc4ccco4)cc3)ccc21", "Potency": "inconclusive: 100 µM [inhibitor, single point]"},
      {"molecule": "O=C(C1=C(O)C(=O)N(c2nc3ccc(Cl)cc3s2)C1c1ccco1)c1ccco1", "note": "(stereo not drawn)", "Potency": "active: 7.94 µM"},
      {"molecule": "COc1ccc(OCC(O)CNC2CCCC2)cc1", "note": "(stereo not drawn)", "Potency": "inconclusive: 79.4 µM [inhibitor, single point]"},
      {"molecule": "COc1ccc2[nH]cc(C(=O)CN3CCC(C)CC3)c2c1", "Potency": "inconclusive: 20 µM [inhibitor, partial curve, poor fit]"},
      {"molecule": "CCc1ccc(NC(=O)CN2C(=O)CCSc3ccc(S(=O)(=O)N4CCCC4)cc32)cc1", "Potency": "inactive"},
      {"molecule": "COc1ccc(NC(=O)/C(Cl)=C(/Cl)S(=O)Cc2ccccc2)cn1", "note": "(stereo not drawn)", "Potency": "active: 31.6 µM"},
      {"molecule": "CCN(CC)c1cc2nonc2c2nonc12", "Potency": "inconclusive: 89.1 µM [inhibitor, single point]"},
      {"molecule": "Cc1ccc(N2C(=O)C3C4C=CC(CNC(=S)Nc5ccc(F)cc5)(O4)C3C2=O)cc1", "note": "(stereo not drawn)", "Potency": "inactive"},
      {"molecule": "Cc1ccc(NC(=O)CCNS(=O)(=O)c2ccc3c(c2)CCC(=O)N3)cc1F", "Potency": "inconclusive: 3.55 µM [inhibitor, full curve, poor fit]"},
      {"molecule": "Cc1ccc(C2NC(=O)c3c(sc(C)c3C)N2)c(O)c1", "note": "(stereo not drawn)", "Potency": "inconclusive: 79.4 µM [inhibitor, partial curve, poor fit]"},
      {"molecule": "C#CCOCCOCCOCCNc1nc(N2CCN(C(=O)CCCCCCCCCCNC(=O)Cn3cc(CCCCCN)nn3)CC2)nc(N2CCN(C(=O)CCCCCCCCCCNC(=O)[C@@H]([C@H](C)O)n3cc(C)nn3)CC2)n1", "Potency": "inconclusive: 31.6 µM [inhibitor, partial curve, poor fit]"},
      {"molecule": "CC(C)(C)OC(=O)N(CCc1ccccc1)Cc1ccc(OCc2cccc(NC(=O)C3CC3)c2)cc1", "Potency": "inconclusive: 79.4 µM [inhibitor, single point]"},
      {"molecule": "CN(CC(=O)N1CCc2ccccc2C1)S(=O)(=O)c1ccc2c(c1)c(=O)n(C)c(=O)n2C", "Potency": "inconclusive: 39.8 µM [inhibitor, single point]"},
      {"molecule": "O=C1CSc2ccc(S(=O)(=O)N3CCN(c4ccccc4F)CC3)cc2N1", "Potency": "inconclusive: 79.4 µM [inhibitor, single point]"},
      {"molecule": "CCC(CO)Oc1cc(NCc2ccc(C)cc2)c2ncn(C(C)C)c2c1", "note": "(stereo not drawn)", "Potency": "inconclusive: 14.1 µM [inhibitor, full curve, poor fit]"},
      {"molecule": "Cc1ccc(CCNC(=O)c2ccc(CSCc3ccc(C)cc3)o2)cc1", "Potency": "inconclusive: 63.1 µM [inhibitor, partial curve, poor fit]"},
      {"molecule": "O=C(N/N=C/c1ccc(Cl)c([N+](=O)[O-])c1)c1cc(-c2ccc3c4c(cccc24)CC3)n[nH]1", "Potency": "inconclusive: 22.4 µM [inhibitor, partial curve, poor fit]"},
      {"molecule": "CCOC(=O)c1ccc(NC(=O)c2cc3c(n(-c4ccc(C)cc4)c2=O)CC(C)(C)CC3=O)cc1", "Potency": "inconclusive: 89.1 µM [inhibitor, single point]"},
      {"molecule": "O=C(CSc1nc2c(oc3ccccc32)c(=O)[nH]1)Nc1cccc(Cl)c1", "Potency": "inconclusive: 89.1 µM [inhibitor, partial curve, poor fit]"},
      {"molecule": "COc1ccc(C(=S)NC2CCCCC2)cc1", "Potency": "inconclusive: 3.16 µM [inhibitor, partial curve, poor fit]"},
      {"molecule": "CCc1ccc(NC(=O)CCNS(=O)(=O)c2cccc3nonc23)cc1", "Potency": "inconclusive: 100 µM [inhibitor, single point]"},
      {"molecule": "CC(C)C(=O)Nc1ccc(-c2ccc3nncn3n2)cc1", "Potency": "inactive"},
      {"molecule": "Cc1cc(C(F)F)nn1CC(=O)NC1C(=O)N2C(C(=O)O)=C(CSc3nnnn3C)CSC12", "note": "(stereo not drawn)", "Potency": "inconclusive: 56.2 µM [inhibitor, partial curve]"},
      {"molecule": "COc1ccccc1OCC(=O)OCC(=O)Nc1sccc1C(N)=O", "Potency": "inconclusive: 50.1 µM [inhibitor, partial curve, poor fit]"},
      {"molecule": "Cc1ccc(NC(=O)Cn2c(=O)n(CCc3ccccc3)c(=O)c3c4c(sc32)CCCC4)cc1C", "Potency": "inactive"},
      {"molecule": "COc1ccc(NC(=O)/C(Cl)=C(/Cl)S(=O)Cc2ccc(Cl)cc2)cn1", "note": "(stereo not drawn)", "Potency": "inconclusive: 12.6 µM [inhibitor, full curve, poor fit]"},
      {"molecule": "CC1CCc2nc(-c3cc4ccc(O)cc4oc3=O)sc2C1", "note": "(stereo not drawn)", "Potency": "inconclusive: 89.1 µM [inhibitor, single point]"},
      {"molecule": "O=C(COc1ccccc1-c1ccccc1)N/N=C/c1cccc2ccccc12", "Potency": "inactive"},
      {"molecule": "CC(=O)c1ccc(S(=O)(=O)Nc2ccc(C(=O)NCCCn3ccnc3)cc2)cc1", "Potency": "inconclusive: 25.1 µM [inhibitor, partial curve, poor fit]"},
      {"molecule": "COc1cccc(-n2c(SCC(=O)N3CCc4ccccc43)nnc2-c2c[nH]c3ccccc23)c1", "Potency": "inactive"},
      {"molecule": "CC1CCCN(c2csc3ccccc3c2=O)C1", "note": "(stereo not drawn)", "Potency": "inconclusive: 89.1 µM [inhibitor, single point]"},
      {"molecule": "COC(=O)CNC(=O)CCCCC(=O)NCC(=O)OC", "Potency": "inconclusive: 31.6 µM [inhibitor, single point]"},
      {"molecule": "CC1CC(C)CN(C(=O)CNC(=O)c2sc3ccccc3c2Cl)C1", "note": "(stereo not drawn)", "Potency": "inconclusive: 0.708 µM [inhibitor, full curve, poor fit]"},
      {"molecule": "CC1CC=CC2C1C(=O)N(Cc1ccccc1)C2c1ccc2ccccc2c1-c1ccc(N(C)C)cc1", "note": "(stereo not drawn)", "Potency": "inactive"},
      {"molecule": "CCn1cc(-c2ccnc3cc(C(=O)O)nn23)c(C)n1", "Potency": "inactive"},
      {"molecule": "O=C(COC(=O)c1ccccc1Oc1ccccc1)NCc1ccco1", "Potency": "inconclusive: 31.6 µM [inhibitor, partial curve, poor fit]"},
      {"molecule": "COc1ccc(-n2nnnc2CNC(=O)c2ccc(S(=O)(=O)N3CCOCC3)cc2)cc1", "Potency": "inconclusive: 89.1 µM [inhibitor, single point]"},
      {"molecule": "CCOc1ccc(N(Cc2cc3cc(C)ccc3[nH]c2=O)C(=O)c2cccc(Cl)c2)cc1", "Potency": "inactive"},
      {"molecule": "O=C1NNC(=O)C1c1ccccc1", "Potency": "inconclusive: 70.8 µM [inhibitor, single point]"},
      {"molecule": "CCc1ccccc1NC(=O)CNC(=O)CNC(=O)C1CCCCC1", "Potency": "inconclusive: 79.4 µM [inhibitor, partial curve, poor fit]"},
      {"molecule": "CC(C)C[C@H](NC(=O)c1nc[nH]c1C(=O)N1CCNCC1)C(=O)OC(C)(C)C", "Potency": "inconclusive: 50.1 µM [inhibitor, partial curve, poor fit]"},
      {"molecule": "COc1ccc2sc(NC(=O)c3ccco3)nc2c1", "Potency": "inconclusive: 17.8 µM [inhibitor, partial curve, poor fit]"},
      {"molecule": "Cn1nccc1NC(=O)NC(=O)c1c(Cl)cccc1Cl", "Potency": "inconclusive: 89.1 µM [inhibitor, single point]"},
      {"molecule": "O=C(OCc1ccccc1)Oc1cncc(C(=O)O)c1", "Potency": "inconclusive: 44.7 µM [inhibitor, partial curve]"},
      {"molecule": "CNC(=O)CSc1nc2sccc2c(=O)n1-c1ccccc1", "Potency": "inactive"},
      {"molecule": "COCCn1c(SCC(=O)N2CCc3ccccc32)nc2c(c1=O)SC(C)C2", "note": "(stereo not drawn)", "Potency": "inconclusive: 31.6 µM [inhibitor, single point]"},
      {"molecule": "COc1cc(S(=O)(=O)N2CCCCC2)ccc1NC(=O)Cc1ccccc1", "Potency": "inconclusive: 39.8 µM [inhibitor, full curve]"},
      {"molecule": "Cc1oc2c(c1C(=O)Nc1ccc(Cl)cc1F)C1=NCCN1C=N2", "Potency": "inactive"}
    ]}
  ]
}
